PubChem BioAssay AID602196 – INSERM | 2012

- Screen: 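Genes whose knock-down alters cisplatin killing of lung cancer cells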
- System: human A549 lung cancer cells
- Knock-down reagent: siRNA pair against human genes
- Timing: 48 h transfection before cisplatin; time from cisplatin to read-out not stated
- Conditions: cisplatin at a dose killing half of control-siRNA cells; exact dose and duration not given
- Measured: 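Cisplatin cell death as a shift from the 50% death seen with control siRNA; siRNAs toxic or growth-blocking alone scored 0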
- Scale: two-siRNA summed score (-2 to +2): higher = both siRNAs protect from cisplatin killing; -2 means both sensitise; mean protection from cisplatin (shift in death) and protection from cisplatin (shift in death), siRNA C and protection from cisplatin (shift in death), siRNA D: higher = protection from cisplatin killing
- Active means: 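Each siRNA scores 0 if harmful alone by LDH or WST-1, otherwise +1 if it reduces and -1 if it increases cisplatin killing; a gene is active when both siRNAs agree (sum +2 or -2)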
- Meaning of the calls: active = both siRNAs shift cisplatin killing the same way; inactive = no consistent shift, or siRNA harmful alone
The deposit covers about 23,000 reagents; this is an unselected part. 455 of them (2%) count as active. 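Active includes both protection and sensitisation; some change values fall well beyond the stated -50 to +50 range.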 A number with no mark means an inactive call. The numbers tell different reagents against one gene apart. Not stated in the record: the amount of reagent.

| Gene | reagent no. | two-siRNA summed score (-2 to +2) | mean protection from cisplatin (shift in death) (%) | protection from cisplatin (shift in death), siRNA C (%) | protection from cisplatin (shift in death), siRNA D (%) |
| --- | --- | --- | --- | --- | --- |
| POU3F4 (GeneID 5456) | 1 | -1 | -15.1 | -13.3 | -17 |
| JRK (GeneID 8629) | 1 | 0 | -3.3 | -6.1 | -0.5 |
| ATP6V1B1 (GeneID 525) | 1 | 0 | -0.5 | -3.9 | 3 |
| MEGF11 (GeneID 84465) | 1 | 0 | 4.4 | 8.7 | 0 |
| DIS3L2 (GeneID 129563) | 1 | 1 | 15.8 | 10.2 | 21.5 |
| TLE4 (GeneID 7091) | 1 | 1 | 8.2 | -3 | 19.4 |
| TSPAN14 (GeneID 81619) | 1 | 0 | 8.1 | 15.8 | 0.4 |
| ESPNL (GeneID 339768) | 1 | 1 | 15.6 | 30.8 | 0.4 |
| TOX4 (GeneID 9878) | 1 | 0 | 2.2 | -3.5 | 7.8 |
| AP5M1 (GeneID 55745) | 1 | 0 | 4.5 | -0.3 | 9.4 |
| LINC02138 (GeneID 400558) | 1 | 0 | 3.2 | 5.9 | 0.5 |
| ATP6V1E1 (GeneID 529) | 1 | 0 | 6.4 | 7 | 5.7 |
| LOC401865 | 1 | 0 | 17.3 | 37.4 | -2.7 |
| LOC390530 | 1 | 0 | 25.2 | 57.6 | -7.3 |
| LOC389814 | 1 | 1 | 12.9 | 5 | 20.8 |
| LINC01115 (GeneID 339822) | 1 | 0 | 12.2 | 7 | 17.4 |
| ZNF681 (GeneID 148213) | 1 | 0 | -4.9 | -1.3 | -8.5 |
| UBE4A (GeneID 9354) | 1 | 0 | 2.1 | -2.8 | 6.9 |
| AMELY (GeneID 266) | 1 | 1 | 30.5 | 39.8 | 21.3 |
| LHFPL7 (GeneID 255349) | 1 | 0 | 3.2 | -4.1 | 10.5 |
| MPZL1 (GeneID 9019) | 1 | 0 | -2.8 | 0 | -5.6 |
| CYP2R1 (GeneID 120227) | 1 | 0 | 0.4 | 0.9 | -0.1 |
| LINC02481 (GeneID 339988) | 1 | 0 | 5.1 | 5.2 | 4.9 |
| LOC54103 | 1 | 0 | -0.4 | 12.3 | -13 |
| HCN4 (GeneID 10021) | 1 | -1 | -9.4 | 3.5 | -22.3 |
| FCGR2A (GeneID 2212) | 1 | 0 | 5.8 | 9.6 | 2.1 |
| DIPK1A (GeneID 388650) | 1 | 0 | -5.8 | -8.1 | -3.6 |
| MAPK10 (GeneID 5602) | 1 | 0 | -2.9 | 6.4 | -12.2 |
| CD47 (GeneID 961) | 1 | -1 | -0.4 | -26.7 | 25.9 |
| ZNF18 (GeneID 7566) | 1 | 0 | 4.6 | -0.3 | 9.5 |
| FADS2 (GeneID 9415) | 1 | 0 | 0.3 | -14.2 | 14.9 |
| SPIN2B (GeneID 474343) | 1 | 0 | 5.3 | 6.3 | 4.4 |
| SPAG16 (GeneID 79582) | 1 | 0 | 7.1 | 6.8 | 7.4 |
| GOLGA6L9 (GeneID 440295) | 1 | 0 | 2.9 | 6.2 | -0.3 |
| KIAA0186 | 1 | 0 | 5.7 | 7 | 4.4 |
| RTP4 (GeneID 64108) | 1 | 0 | 2.4 | -10.8 | 15.5 |
| ZXDB (GeneID 158586) | 1 | 0 | -0.5 | -5.1 | 4.1 |
| CSNK1G2-AS1 (GeneID 255193) | 1 | 1 | 8.3 | 0.9 | 15.8 |
| XKR6 (GeneID 286046) | 1 | 0 | 5.3 | 6.4 | 4.2 |
| XKR6 (GeneID 286046) | 2 | 1 | 10.8 | 18.9 | 2.8 |

4 entries from above, set out differently:
Gene,reagent no.,two-siRNA summed score (-2 to +2),mean protection from cisplatin (shift in death) (%),"protection from cisplatin (shift in death), siRNA C (%)","protection from cisplatin (shift in death), siRNA D (%)"
LOC390530,1,0,25.2,57.6,-7.3
LOC389814,1,1,12.9,5,20.8
LINC01115 (GeneID 339822),1,0,12.2,7,17.4
ZNF681 (GeneID 148213),1,0,-4.9,-1.3,-8.5
